Measured values taken from patent publication US20160090351A1, “INHIBITORS OF DEUBIQUITINATING PROTEASES” (BRANDEIS UNIVERSITY, priority 2013, published 2016).
Some entries share one result that the patent states for a list of compounds. For at least one compound, name, drawing or mass did not settle the structure.

Tested on: DUBs
Assay: decomposition of high molecular weight ubiquitinated proteins (HMW-Ub) in lysates of HEK 293T cells expressing HA-Ub
Format: biochemical, human
Conditions: for stabilization of the HMW-Ub pool: HEK 293T HA-Ub lysates, 37° C.
Experimental: FIG. 30 depicts data showing that diphenylcarbonates inhibit the decomposition of high molecular weight ubiquitinated proteins (HMW-Ub). Lysates were prepared from HEK 293T cells expressing HA-ubiquitin. Samples were incubated at 37° C. and reactions were quenched by the addition of reducing Laemmli buffer. HMW-Ub was assessed by SDS-PAGE and immunoblotting with anti-HA antibody. A. Representative immunoblots measuring the decomposition of HMW-Ub in lysates treated with either the DMSO vehicle, G5 (10 μM) or C4 (500 μM). B. Plot of the decomposition of HMW-Ub in lysates treated with DMSO and C4 (500 μM) (N=2; error bars denote range). C. Inhibition of HMW-Ub decomposition by diphenylcarbonates. Lysates were treated with diphenylcarbonates (50 μM). “-” denotes no treatment; D, 1% DMSO vehicle; IU1, an USP14-specific inhibitor; Bort, bortezomib, a proteasome inhibitor. D. Representative decomposition of HMW-Ub after 2 h incubation in the presence of varying concentrations of C4. See also FIG. 36. E. Quantitation of D. The values of EC50 reported in FIG. 29B are the average and S.E.M. of at least 3 independent experiments. See also FIG. 37 and FIG. 38.
Cells overexpressing HA-ubiquitin were prepared as above. Pellets were typically stored at −80° C. until required, at which time they were thawed on ice. Cell lysis was performed in lysis buffer using a Dounce homogenizer (10 strokes, with grinding, on ice: typical yield approx. 2-5 mg protein per transfected T75 flask for HEK 293T cells; 1-3 mg protein from a T75 flask for Cos-1). Crude lysate was centrifuged at 17000 g for 10 min at 4° C., after which time the concentration of the lysate was normalized to 1 mg/mL. The lysate was aliquoted into PCR strip tubes (typical volumes 75-50 μL) and compound in DMSO was added to this to give a final concentration of DMSO of 1%. Tubes were briefly centrifuged, overlaid with Chill-out wax (50 μL) and placed in a PCR machine at 37° C. with heated lid set to 37° C. Aliquots (9 μL) were removed at the stated times and immediately quenched in (2× final concentration) reducing (dithiothreitol) loading buffer and frozen (−19° C.) till required. Western blot analysis was carried out using standard methods. Samples were resolved by SDS-PAGE, transferred to PVDF [(0.45 μm) (Towbin buffer, tank apparatus, 90 V 1 hour, then overnight at 30 V, 4° C.)] then blocked in 15% milk in TBS-T HS (100 mM Tris HCl, pH 7.6, 500 mM NaCl, 0.5% […]) for at least 2 hours at RT. Afterward, membrane was washed in TBS-T HS then probed with anti HA-HRP (1:18000) for 1.33 hours at RT. […] When required, membranes were stripped in 100 mM glycine pH 4, 500 mM NaCl, 1% SDS, 5 mM BME, at 55° C. for 19 mins, then analyzed. […]

SMILES | stabilization of the HMW-Ub pool | EC50 (candidates for testing in whole cells)
O=C(Oc1ccccc1)Oc1ccccc1 [Compound C1] | failed to substantially stabilize the HMW-Ub pool | –
COc1ccc(OC(=O)Oc2ccc(OC)cc2)cc1 [Compound C2] | failed to substantially stabilize the HMW-Ub pool | –
CC(C)COC(=O)Oc1ccc(CN)cc1 [Compound C6] | failed to substantially stabilize the HMW-Ub pool | –
NCc1ccc(OC(=O)Oc2ccc(Cl)cc2)cc1 [Compound C14, 4-(aminomethyl)phenyl(4-chlorophenol)carbonate] | – | ≤ 50 µM
